{"sequences": {"note": "By UniProt entry, the sequences of proteins in these tests, tags left out. Residues count along the entry.", "UniProt Q9UGN5, 77-220": "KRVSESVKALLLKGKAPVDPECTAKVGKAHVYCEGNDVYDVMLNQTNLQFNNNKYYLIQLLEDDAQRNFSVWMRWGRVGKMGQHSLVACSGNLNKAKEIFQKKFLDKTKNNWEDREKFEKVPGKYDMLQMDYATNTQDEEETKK"}, "source": "paper PMC12209172", "about": "“Poly(ADP-ribose)polymerase 2 is zinc-dependent enzyme and nucleosome reorganizer” (Cellular and Molecular Life Sciences: CMLS, 2025)", "molecular_target": "T1, WGR domain of PARP2 (Homo sapiens, UniProt Q9UGN5)", "T1 construct": "WGR domain of PARP2 (residues 77–220) into pET-15b-TEV expression vector; 6xHis (pET-15b-TEV) (N, cleaved yes); made in house; host or cells: Escherichia coli Rosetta2 (DE3) pLysS", "assay": "Tryptophan fluorescence spectroscopy of the WGR domain titrated with divalent cations (one site binding fit)", "conditions": "listed as Zn", "description": "Fluorescence spectra of Trp residues were measured in the 300–450 nm spectral range at the 270 nm excitation wavelengths using the Cary Eclipse spectrofluorometer (Varian/Agilent, USA).\nFluorescence of WGR domain was measured at 0.5 or 5 µM in a buffer containing 10 mM HEPES (pH 8.0), 150 mM NaCl and 0.73 or 7.3 µM EDTA, respectively. Solutions were complemented with ZnCl2 (0.2–308 µM) or MgCl2 (15–5000 µM), or CaCl2 (8–5000 µM) dissolved in a buffer containing 10 mM HEPES (pH 8.0), 150 mM NaCl. Intensity of the measured spectra was corrected for the concomitant dilution of the WGR domain. Integral intensities (Ifl.) of fluorescence spectra were averaged over three independent measurements (mean ± SEM) and used to plot the corresponding Ifl. vs. ion concentration graphs. Data were fitted with the one site binding equation:2 [drawing 2]\nWhere C is the concentration of divalent cations, Kd is a dissociation constant of the complex, Im and Ifl0 are maximal and initial values of Ifl., respectively.", "note": "Values joined by “and” are separate entries in the source; they are usually repeats but may differ in a detail not shown here. Equal entries are not always repeated. The source gives many values for each of these; only a part stands here.", "data": [{"smiles": "[Cl-].[Cl-].[Zn+2]", "note": "[Zn2+, ZnCl2]", "values": [{"measurement": "fluorescence intensity (Fig 3d)", "setting": "wavelength 354.000, 5.9 uM Zn", "value": "67.285 and 76.342 and 93.665 and 74.817"}, {"measurement": "fluorescence intensity (Fig 3d)", "setting": "wavelength 354.000, 11.6 uM Zn", "value": "128.158 and 111.185 and 111.648 and 117.492"}, {"measurement": "fluorescence intensity (Fig 3d)", "setting": "wavelength 354.000, 17.2 uM", "value": "133.640 and 124.345 and 123.362 and 123.223"}, {"measurement": "fluorescence intensity (Fig 3d)", "setting": "wavelength 354.000, 22.1 uM", "value": "136.574 and 123.971 and 125.419 and 125.826"}, {"measurement": "fluorescence intensity (Fig 3d)", "setting": "wavelength 354.000, 303 uM + 7 mM EDTA", "value": "44.501 and 55.593 and 44.456 and 53.696"}, {"measurement": "fluorescence intensity (Fig 3d)", "setting": "wavelength 354.000, 308 uM", "value": "135.412 and 130.314 and 129.599 and 123.811"}, {"measurement": "fluorescence intensity (Fig 3d)", "setting": "wavelength 355.070, 5.9 uM Zn", "value": "65.935 and 74.680 and 92.139 and 72.754"}, {"measurement": "fluorescence intensity (Fig 3d)", "setting": "wavelength 355.070, 11.6 uM Zn", "value": "124.647 and 109.093 and 108.771 and 115.370"}, {"measurement": "fluorescence intensity (Fig 3d)", "setting": "wavelength 355.070, 17.2 uM", "value": "134.100 and 122.448 and 122.181 and 121.920"}, {"measurement": "fluorescence intensity (Fig 3d)", "setting": "wavelength 355.070, 22.1 uM", "value": "133.788 and 122.906 and 122.440 and 122.888"}, {"measurement": "fluorescence intensity (Fig 3d)", "setting": "wavelength 355.070, 303 uM + 7 mM EDTA", "value": "42.180 and 55.172 and 43.393 and 52.995"}, {"measurement": "fluorescence intensity (Fig 3d)", "setting": "wavelength 355.070, 308 uM", "value": "132.870 and 126.269 and 126.212 and 122.072"}, {"measurement": "fluorescence intensity (Fig 3d)", "setting": "wavelength 356.000, 5.9 uM Zn", "value": "64.907 and 74.547 and 90.639 and 72.667"}, {"measurement": "fluorescence intensity (Fig 3d)", "setting": "wavelength 356.000, 11.6 uM Zn", "value": "122.988 and 108.229 and 108.188 and 114.548"}, {"measurement": "fluorescence intensity (Fig 3d)", "setting": "wavelength 356.000, 17.2 uM", "value": "131.057 and 121.289 and 121.206 and 119.668"}, {"measurement": "fluorescence intensity (Fig 3d)", "setting": "wavelength 356.000, 22.1 uM", "value": "132.012 and 119.749 and 121.562 and 123.282"}, {"measurement": "fluorescence intensity (Fig 3d)", "setting": "wavelength 356.000, 303 uM + 7 mM EDTA", "value": "42.285 and 53.604 and 43.025 and 52.086"}, {"measurement": "fluorescence intensity (Fig 3d)", "setting": "wavelength 356.000, 308 uM", "value": "129.933 and 126.006 and 124.687 and 122.196"}, {"measurement": "fluorescence intensity (Fig 3d)", "setting": "wavelength 357.070, 5.9 uM Zn", "value": "64.114 and 72.196 and 88.731 and 69.739"}, {"measurement": "fluorescence intensity (Fig 3d)", "setting": "wavelength 357.070, 11.6 uM Zn", "value": "123.122 and 106.392 and 106.096 and 113.312"}, {"measurement": "fluorescence intensity (Fig 3d)", "setting": "wavelength 357.070, 17.2 uM", "value": "130.148 and 119.457 and 119.526 and 117.712"}, {"measurement": "fluorescence intensity (Fig 3d)", "setting": "wavelength 357.070, 22.1 uM", "value": "131.312 and 119.419 and 120.483 and 119.148"}, {"measurement": "fluorescence intensity (Fig 3d)", "setting": "wavelength 357.070, 303 uM + 7 mM EDTA", "value": "41.716 and 52.477 and 42.546 and 51.546"}, {"measurement": "fluorescence intensity (Fig 3d)", "setting": "wavelength 357.070, 308 uM", "value": "128.314 and 123.632 and 122.132 and 121.183"}, {"measurement": "fluorescence intensity (Fig 3d)", "setting": "wavelength 358.000, 5.9 uM Zn", "value": "63.157 and 72.021 and 88.099 and 69.266"}, {"measurement": "fluorescence intensity (Fig 3d)", "setting": "wavelength 358.000, 11.6 uM Zn", "value": "120.165 and 104.067 and 105.092 and 110.586"}, {"measurement": "fluorescence intensity (Fig 3d)", "setting": "wavelength 358.000, 17.2 uM", "value": "127.935 and 116.823 and 116.491 and 115.456"}, {"measurement": "fluorescence intensity (Fig 3d)", "setting": "wavelength 358.000, 22.1 uM", "value": "129.697 and 118.502 and 117.563 and 117.664"}, {"measurement": "fluorescence intensity (Fig 3d)", "setting": "wavelength 358.000, 303 uM + 7 mM EDTA", "value": "40.855 and 51.601 and 41.681 and 50.945"}, {"measurement": "fluorescence intensity (Fig 3d)", "setting": "wavelength 358.000, 308 uM", "value": "126.335 and 120.305 and 121.465 and 117.345"}, {"measurement": "fluorescence intensity (Fig 3d)", "setting": "wavelength 359.070, 5.9 uM Zn", "value": "62.278 and 70.830 and 86.329 and 68.361"}, {"measurement": "fluorescence intensity (Fig 3d)", "setting": "wavelength 359.070, 11.6 uM Zn", "value": "119.231 and 104.405 and 103.692 and 108.979"}, {"measurement": "fluorescence intensity (Fig 3d)", "setting": "wavelength 359.070, 17.2 uM", "value": "125.377 and 116.003 and 114.866 and 114.647"}, {"measurement": "fluorescence intensity (Fig 3d)", "setting": "wavelength 359.070, 22.1 uM", "value": "125.510 and 115.026 and 117.050 and 116.523"}, {"measurement": "fluorescence intensity (Fig 3d)", "setting": "wavelength 359.070, 303 uM + 7 mM EDTA", "value": "40.858 and 51.293 and 41.485 and 49.674"}, {"measurement": "fluorescence intensity (Fig 3d)", "setting": "wavelength 359.070, 308 uM", "value": "124.778 and 116.949 and 118.426 and 115.904"}, {"measurement": "fluorescence intensity (Fig 3d)", "setting": "wavelength 360.000, 5.9 uM Zn", "value": "61.254 and 69.823 and 84.544 and 66.502"}, {"measurement": "fluorescence intensity (Fig 3d)", "setting": "wavelength 360.000, 11.6 uM Zn", "value": "117.057 and 100.255 and 101.019 and 105.573"}, {"measurement": "fluorescence intensity (Fig 3d)", "setting": "wavelength 360.000, 17.2 uM", "value": "123.352 and 114.211 and 114.005 and 112.097"}, {"measurement": "fluorescence intensity (Fig 3d)", "setting": "wavelength 360.000, 22.1 uM", "value": "123.035 and 111.852 and 114.429 and 112.753"}, {"measurement": "fluorescence intensity (Fig 3d)", "setting": "wavelength 360.000, 303 uM + 7 mM EDTA", "value": "39.669 and 50.425 and 40.528 and 48.947"}, {"measurement": "fluorescence intensity (Fig 3d)", "setting": "wavelength 360.000, 308 uM", "value": "121.609 and 115.733 and 116.350 and 113.134"}, {"measurement": "fluorescence intensity (Fig 3d)", "setting": "wavelength 361.070, 5.9 uM Zn", "value": "59.131 and 68.253 and 82.430 and 64.951"}, {"measurement": "fluorescence intensity (Fig 3d)", "setting": "wavelength 361.070, 11.6 uM Zn", "value": "114.046 and 98.566 and 99.036 and 105.396"}, {"measurement": "fluorescence intensity (Fig 3d)", "setting": "wavelength 361.070, 17.2 uM", "value": "120.461 and 110.090 and 110.969 and 109.973"}, {"measurement": "fluorescence intensity (Fig 3d)", "setting": "wavelength 361.070, 22.1 uM", "value": "121.524 and 109.505 and 110.838 and 110.734"}, {"measurement": "fluorescence intensity (Fig 3d)", "setting": "wavelength 361.070, 303 uM + 7 mM EDTA", "value": "38.187 and 49.332 and 39.428 and 48.013"}, {"measurement": "fluorescence intensity (Fig 3d)", "setting": "wavelength 361.070, 308 uM", "value": "118.289 and 112.479 and 113.917 and 110.987"}, {"measurement": "fluorescence intensity (Fig 3d)", "setting": "wavelength 362.000, 5.9 uM Zn", "value": "58.264 and 66.735 and 80.884 and 63.696"}, {"measurement": "fluorescence intensity (Fig 3d)", "setting": "wavelength 362.000, 11.6 uM Zn", "value": "112.097 and 97.087 and 96.457 and 101.954"}, {"measurement": "fluorescence intensity (Fig 3d)", "setting": "wavelength 362.000, 17.2 uM", "value": "117.941 and 108.915 and 110.053 and 108.113"}, {"measurement": "fluorescence intensity (Fig 3d)", "setting": "wavelength 362.000, 22.1 uM", "value": "118.341 and 109.078 and 108.775 and 108.785"}, {"measurement": "fluorescence intensity (Fig 3d)", "setting": "wavelength 362.000, 303 uM + 7 mM EDTA", "value": "38.449 and 48.285 and 37.988 and 47.341"}, {"measurement": "fluorescence intensity (Fig 3d)", "setting": "wavelength 362.000, 308 uM", "value": "117.095 and 112.475 and 111.657 and 109.754"}, {"measurement": "fluorescence intensity (Fig 3d)", "setting": "wavelength 363.070, 5.9 uM Zn", "value": "57.594 and 64.746 and 79.909 and 62.129"}, {"measurement": "fluorescence intensity (Fig 3d)", "setting": "wavelength 363.070, 11.6 uM Zn", "value": "108.644 and 94.057 and 94.934 and 99.988"}, {"measurement": "fluorescence intensity (Fig 3d)", "setting": "wavelength 363.070, 17.2 uM", "value": "116.250 and 107.112 and 107.532 and 105.901"}, {"measurement": "fluorescence intensity (Fig 3d)", "setting": "wavelength 363.070, 22.1 uM", "value": "117.573 and 106.408 and 107.151 and 106.670"}, {"measurement": "fluorescence intensity (Fig 3d)", "setting": "wavelength 363.070, 303 uM + 7 mM EDTA", "value": "36.953 and 47.216 and 38.073 and 46.071"}, {"measurement": "fluorescence intensity (Fig 3d)", "setting": "wavelength 363.070, 308 uM", "value": "112.775 and 108.426 and 109.036 and 107.052"}]}]}
